Some entries share one result that the patent states for a list of compounds. For part of these data: At least one compound was matched to its structure with a doubt left.
Columns and labels:
Type in all cases: physicochemical
[1] = Storage test (1-4) using 10 mM acetate buffer solution (pH 5.1); settings: additional component 5 wt %, 1.0 wt % hyaluronic acid derivative, 10 mM acetate buffer pH 5.1, 1 week at 60° C., HPLC, control solution = 1
Method: An acetic acid aqueous solution having an acetic acid concentration of 15 mM and a sodium acetate aqueous solution having an acetate concentration of 15 mM were mixed at a ratio (volume ratio) of 1:3, whereby an acetate buffer solution was prepared. The pH of the acetate buffer solution after preparation was 5.1. In addition, an acetate buffer solution having an acetic acid concentration of 45 mM and a pH of 5.1 was prepared in a similar manner. […]
(§1) Each of the test samples was stored for 1 week in a thermostat chamber at 60° C., and thereafter, the accumulation amount of each of diclofenac and diclofenac lactam was measured by HPLC.
(§2) The amount of diclofenac and the amount of diclofenac lactam were calculated as relative values when each of the amount of diclofenac and the amount of diclofenac lactam present in the control solution (1 wt % hyaluronic acid derivative solution) after being stored for 1 week at 60° C. was assumed to be 1.
(§3) Each of the prepared various test samples was filled in a screw vial (AS ONE Corporation, Cat No. 3-1599-01) and left to stand at 60° C. for 1 week. The amount of diclofenac and the amount of diclofenac lactam present in the solution after being left to stand were quantitatively analyzed by HPLC. […]
(§4) The elution time of each of diclofenac and diclofenac lactam was determined by performing measurement in advance using a standard substance.

[2] = Storage test (1-3) using 30 mM acetate buffer solution (pH 5.1); settings: 1.0 wt % hyaluronic acid derivative, 30 mM acetate buffer pH 5.1, 1 week at 60° C., HPLC, control solution = 1; for amount of diclofenac (relative value) / amount of diclofenac lactam (relative value): additional component 1.5 wt %
Method: An acetic acid aqueous solution having an acetic acid concentration of 15 mM and a sodium acetate aqueous solution having an acetate concentration of 15 mM were mixed at a ratio (volume ratio) of 1:3, whereby an acetate buffer solution was prepared. The pH of the acetate buffer solution after preparation was 5.1. In addition, an acetate buffer solution having an acetic acid concentration of 45 mM and a pH of 5.1 was prepared in a similar manner.
(§5) 1.5 g of the hyaluronic acid derivative of the above Synthesis Example and 98.5 g of each of the various buffer solutions prepared above were mixed and stirred for 2 hours in a water bath at 70° C., whereby a 1.5 wt % hyaluronic acid derivative solution was prepared.
(§6) Additional component aqueous solutions to be added to the hyaluronic acid derivative solution were prepared using various additional components and WFI so that the concentration of each component is three times as high as the final concentration (wt %).
(§7) 2.0 g of the 1.5 wt % hyaluronic acid derivative solution prepared above and 1.0 g of the additional component aqueous solution were mixed, whereby a test sample (final concentration of hyaluronic acid derivative: 1.0 wt %) was prepared.
(§8) The test samples prepared above containing each of the various buffer solutions (50 mM phosphate buffer solution, 10 mM citrate buffer solution, 10 mM acetate buffer solution, or 30 mM acetate buffer solution) were subjected to a storage test.
as §1, §2
(§9) Each of the prepared various test samples was filled in a screw vial (AS ONE Corporation, Cat No. 3-1599-01) and left to stand at 60° C. for 1 week. The amount of diclofenac and the amount of diclofenac lactam present in the solution after being left to stand were quantitatively analyzed by HPLC.
(§10) The HPLC conditions are as follows.
as §4
As the additional component, propyl gallate (1.5 wt %), any one of lactic acid anhydrous (1.5 wt %), hydroxypropyl cellulose (1.5 wt %), starch (1.5 wt %), dextran (5 wt %), sucrose (5 wt %), sodium saccharinate dihydrate (5 wt %), glycine (5 wt %), sodium aspartate (1.5 wt %), L-leucine (1.5 wt %), L-phenylalanine (5 wt %), L-serine (5 wt %), D-mannitol (1.5 wt %), D-sorbitol (5 wt %), hydroxypropyl-β-cyclodextrin (3 wt %, 5 wt %, 10 wt %, or 15 wt %), and ethanol (5 wt %, 10 wt %, 20 wt %, or 26.3 wt %) was used.

[3] = Storage test (1-1) using 50 mM phosphate buffer solution (pH 6.5); settings: 1.0 wt % hyaluronic acid derivative, 50 mM phosphate buffer pH 6.5, 1 week at 60° C., HPLC, control solution = 1
Method: as §5, §6, §7, §8, §1, §2, §9, §10, §4

[4] = Storage test (1-2) using 10 mM citrate buffer solution (pH 5.1); settings: additional component 1 wt %; 1.0 wt % hyaluronic acid derivative, 10 mM citrate buffer pH 5.1, 1 week at 60° C., HPLC; control solution = 1
Method: A citric acid aqueous solution having a citric acid concentration of 15 mM and a trisodium citrate aqueous solution having a citrate concentration of 15 mM were mixed at a ratio (volume ratio) of 27:37, whereby a citrate buffer solution was prepared. The pH of the citrate buffer solution after preparation was 5.1.
1.5 g of the hyaluronic acid derivative of the above Synthesis Example and 98.5 g of each of the various buffer solutions prepared above were mixed and stirred for 2 hours in a water bath at 70° C., whereby a 1.5 wt % hyaluronic acid derivative solution was prepared. […]
as §1, §2, §3

[5] = additional component 3 wt %, listed as hydroxypropyl-β-cyclodextrin
[6] = additional component 5 wt %, listed as hydroxypropyl-β-cyclodextrin
[7] = additional component 10 wt %, listed as hydroxypropyl-β-cyclodextrin
[8] = additional component 15 wt %, listed as hydroxypropyl-β-cyclodextrin

In the case of hydroxyethyl-β-cyclodextrin [HE-β-CD], the “Lac amount: the relative value of the amount of diclofenac lactam” value (from here on “Lac amount: the relative value”) ([1]; listed as hydroxyethyl-β-cyclodextrin) is reported as “below 1”.

For `CC(C)C[C@H](N)C(=O)O` [L-leucine], the “amount of diclofenac (relative value)” value [2] was “exceeded 1” and the “amount of diclofenac lactam (relative value)” value [2] was “exceeded 1”.

In the case of `N[C@@H](CO)C(=O)O` [L-serine], the “Dic amount: the relative value of the amount of diclofenac” value (“Dic amount: the relative value” for short) ([2]; additional component 5 wt %) is reported as “exceeded 1” and the “Lac amount: the relative value” value ([2]; additional component 5 wt %) is reported as “exceeded 1”.

With hydroxypropyl-β-cyclodextrin [HP-β-CD] the “Dic amount: the relative value” value [2, 5] was “below 1”, the “Lac amount: the relative value” value [2, 5] was “below 1” and the “Dic amount: the relative value” value [2, 6] was “below 1”. For the same molecule, the “Lac amount: the relative value” value [2, 6] was “below 1”, the “Dic amount: the relative value” value [2, 7] was “below 1” and the “Lac amount: the relative value” value [2, 7] was “below 1”. The “Dic amount: the relative value” value [2, 8] was “below 1”, the “Lac amount: the relative value” value [2, 8] was “below 1” and the “Dic amount: the relative value” value [1] was “below 1”.

With `OC[C@H]1O[C@@H]2O[C@H]3[C@H](O)[C@@H](O)[C@@H](O[C@H]4[C@H](O)[C@@H](O)[C@@H](O[C@H]5[C@H](O)[C@@H](O)[C@@H](O[C@H]6[C@H](O)[C@@H](O)[C@@H](O[C@H]7[C@H](O)[C@@H](O)[C@@H](O[C@H]1[C@H](O)[C@H]2O)O[C@@H]7CO)O[C@@H]6CO)O[C@@H]5CO)O[C@@H]4CO)O[C@@H]3CO` [α-cyclodextrin] the “Dic amount: the relative value” value ([3]; additional component 5 wt %) was “exceeded 1” and the “Lac amount: the relative value” value ([3]; additional component 5 wt %) was “exceeded 1”.

With `OC[C@@H](O)[C@@H](O)[C@H](O)[C@H](O)CO` [D-mannitol] the “amount of diclofenac (relative value)” value [2] was “exceeded 1” and the “amount of diclofenac lactam (relative value)” value [2] was “exceeded 1”.

For `O=C(CCc1ccc(O)cc1)c1c(O)cc(O)cc1O[C@@H]1O[C@H](CO)[C@@H](O)[C@H](O)[C@H]1O` [phlorizin hydrate], the “Dic amount: the relative value” value ([3]; additional component 1.5 wt %) was “exceeded 1” and the “Lac amount: the relative value” value ([3]; additional component 1.5 wt %) was “exceeded 1”.

For `OC[C@H]1O[C@@H]2O[C@H]3[C@H](O)[C@@H](O)[C@@H](O[C@H]4[C@H](O)[C@@H](O)[C@@H](O[C@H]5[C@H](O)[C@@H](O)[C@@H](O[C@H]6[C@H](O)[C@@H](O)[C@@H](O[C@H]7[C@H](O)[C@@H](O)[C@@H](O[C@H]8[C@H](O)[C@@H](O)[C@@H](O[C@H]1[C@H](O)[C@H]2O)O[C@@H]8CO)O[C@@H]7CO)O[C@@H]6CO)O[C@@H]5CO)O[C@@H]4CO)O[C@@H]3CO` [β-cyclodextrin], the “Dic amount: the relative value” value ([3]; additional component 5 wt %) was “exceeded 1” and the “Lac amount: the relative value” value ([3]; additional component 5 wt %) was “exceeded 1”.

In the case of `CCCOC(=O)c1cc(O)c(O)c(O)c1` [propyl gallate], the “amount of diclofenac (relative value)” value [2] is reported as “exceeded 1” and the “amount of diclofenac lactam (relative value)” value [2] is reported as “exceeded 1”.

For `NC(=O)c1cccnc1` [nicotinamide], the “Dic amount: the relative value” value ([3]; additional component 5 wt %) was “exceeded 1” and the “Lac amount: the relative value” value ([3]; additional component 5 wt %) was “exceeded 1”.

In the case of `N[C@@H](CC(=O)[O-])C(=O)[O-].[Na+].[Na+]` [sodium aspartate], the “amount of diclofenac (relative value)” value [2] is reported as “exceeded 1” and the “amount of diclofenac lactam (relative value)” value [2] is reported as “exceeded 1”.

In the case of `OCc1ccccc1` [benzyl alcohol], the “Dic amount: the relative value” value ([3]; additional component 5 wt %) is reported as “exceeded 1” and the “Lac amount: the relative value” value ([3]; additional component 5 wt %) is reported as “exceeded 1”.

In the case of `OC[C@H]1O[C@@](CO)(O[C@H]2O[C@H](CO)[C@@H](O)[C@H](O)[C@H]2O)[C@@H](O)[C@@H]1O` [sucrose], the “Dic amount: the relative value” value ([2]; additional component 5 wt %) is reported as “exceeded 1” and the “Lac amount: the relative value” value ([2]; additional component 5 wt %) is reported as “exceeded 1”.

For `N[C@@H](Cc1ccccc1)C(=O)O` [L-phenylalanine], the “Dic amount: the relative value” value ([2]; additional component 5 wt %) was “exceeded 1” and the “Lac amount: the relative value” value ([2]; additional component 5 wt %) was “exceeded 1”.

In the case of `OC[C@H]1O[C@@H]2O[C@H]3[C@H](O)[C@@H](O)[C@@H](O[C@H]4[C@H](O)[C@@H](O)[C@@H](O[C@H]5[C@H](O)[C@@H](O)[C@@H](O[C@H]6[C@H](O)[C@@H](O)[C@@H](O[C@H]7[C@H](O)[C@@H](O)[C@@H](O[C@H]8[C@H](O)[C@@H](O)[C@@H](O[C@H]9[C@H](O)[C@@H](O)[C@@H](O[C@H]1[C@H](O)[C@H]2O)O[C@@H]9CO)O[C@@H]8CO)O[C@@H]7CO)O[C@@H]6CO)O[C@@H]5CO)O[C@@H]4CO)O[C@@H]3CO` [γ-cyclodextrin], the “Dic amount: the relative value” value ([3]; additional component 5 wt %) is reported as “exceeded 1” and the “Lac amount: the relative value” value ([3]; additional component 5 wt %) is reported as “exceeded 1”.

With `OC[C@@H](O)[C@@H](O)[C@H](O)[C@@H](O)CO` [D-sorbitol] the “Dic amount: the relative value” value ([2]; additional component 5 wt %) was “exceeded 1” and the “Lac amount: the relative value” value ([2]; additional component 5 wt %) was “exceeded 1”.

In the case of `CN1CC(=O)NC1=N` [creatinine], the “amount of diclofenac (relative value)” value [4] is reported as “exceeded 1” and the “amount of diclofenac lactam (relative value)” value [4] is reported as “exceeded 1”.

In the case of `CC(O)C(=O)O` (stereo not drawn) [lactic acid anhydrous], the “amount of diclofenac (relative value)” value [2] is reported as “exceeded 1” and the “amount of diclofenac lactam (relative value)” value [2] is reported as “exceeded 1”.

Reference: patent US11744899B2, “Pharmaceutical composition containing a hyaluronic acid derivative” (SEIKAGAKU CORPORATION, priority 2018, dated 2023)
